{"source": "the supplement of paper PMC8007513", "note": "The list shows a part of the results. Many values rest on one well or one pass, so single values are uncertain."}
{"tested_on": "Saccharomyces cerevisiae BY4743", "experiment": "growth (OD600) with compound + IPBC relative to untreated control; higher = less growth inhibition", "details": "compound concentration: 133 uM; IPBC concentration: 0.5 ug/ml; 20 h", "protocol": "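NMCCC compounds (133 uM) combined with IPBC (0.5 ug/ml) against Saccharomyces cerevisiae BY4743 in YPD, 96-well plates. Growth was read as OD600 at 20 h and expressed as % of the untreated control. Single pass.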", "units": {"growth": "%"}}
{"molecule": "CC1=CC(=NO1)COC(=O)C/2=C/N3CC[S](=O)(=O)/N=C3/C=C2", "note": "+ CCCCNC(=O)OCC#CI [3-iodo-2-propynyl butylcarbamate (IPBC)]", "growth": 94.8}
{"molecule": "CC(C(=O)[O-])n1c(Br)nc2c1c(=O)[nH]c(=O)n2C", "note": "(centres undefined) + CCCCNC(=O)OCC#CI [3-iodo-2-propynyl butylcarbamate (IPBC)]", "growth": 96.4}
{"molecule": "COc1cccc(N2CC(C(=O)NCc3ccccc3S(=O)(=O)N(C)C)CC2=O)c1", "note": "(centres undefined) + CCCCNC(=O)OCC#CI [3-iodo-2-propynyl butylcarbamate (IPBC)]", "growth": 103}
{"molecule": "COc1ccccc1CNc1sc(S(C)(=O)=O)nc1S(=O)(=O)c1ccc(C)cc1", "note": "+ CCCCNC(=O)OCC#CI [3-iodo-2-propynyl butylcarbamate (IPBC)]", "growth": 99.4}
{"molecule": "Cc1ccnc(NC(=O)c2ccc(C)cc2Cl)c1", "note": "+ CCCCNC(=O)OCC#CI [3-iodo-2-propynyl butylcarbamate (IPBC)]", "growth": 103}
{"molecule": "CCOc1ccc(Oc2ccc(NC(=O)c3cc(S(=O)(=O)NC(C)C)cn3C)cc2)cc1", "note": "+ CCCCNC(=O)OCC#CI [3-iodo-2-propynyl butylcarbamate (IPBC)]", "growth": 98.4}
{"molecule": "Cc1nn(C)c(C)c1CCC(=O)NCc1nnc2ccc(C(F)(F)F)cn12", "note": "+ CCCCNC(=O)OCC#CI [3-iodo-2-propynyl butylcarbamate (IPBC)]", "growth": 108}
{"molecule": "Nc1nccnc1C(=O)OCc1cc2c(cc1Br)OCCO2", "note": "+ CCCCNC(=O)OCC#CI [3-iodo-2-propynyl butylcarbamate (IPBC)]", "growth": 95.5}
{"molecule": "COC(=O)\\C1=C(/C)N\\2C(=O)CSC2=N/C1C3=CC(=CC=C3OC)OC", "note": "(centres undefined) + CCCCNC(=O)OCC#CI [3-iodo-2-propynyl butylcarbamate (IPBC)]", "growth": 86.3}
{"molecule": "CC(Oc1ccc(Cl)cc1C(N)=O)C(=O)Nc1ccc(C#N)cc1", "note": "(centres undefined) + CCCCNC(=O)OCC#CI [3-iodo-2-propynyl butylcarbamate (IPBC)]", "growth": 105}
{"molecule": "CCC(C)c1ccc(NC(=O)c2cnn3c(C(F)F)cc(C)nc23)cc1", "note": "(centres undefined) + CCCCNC(=O)OCC#CI [3-iodo-2-propynyl butylcarbamate (IPBC)]", "growth": 95.2}
{"molecule": "COc1ccccc1CCNC(=O)CSc1nnnn1Cc1ccccc1", "note": "+ CCCCNC(=O)OCC#CI [3-iodo-2-propynyl butylcarbamate (IPBC)]", "growth": 112}
{"molecule": "CCCOc1ccc(C(F)(F)F)cc1NC(=O)C1CSC2(C)CCC(=O)N12", "note": "(centres undefined) + CCCCNC(=O)OCC#CI [3-iodo-2-propynyl butylcarbamate (IPBC)]", "growth": 82.2}
{"molecule": "CCc1c(C)nc2nc(NCc3cc(Br)ccc3OC)nn2c1O", "note": "+ CCCCNC(=O)OCC#CI [3-iodo-2-propynyl butylcarbamate (IPBC)]", "growth": 95.2}
{"molecule": "Cc1cc(C)n(CCC(=O)NCCN2CCN(c3cc(Cl)ccc3C)CC2)n1", "note": "+ CCCCNC(=O)OCC#CI [3-iodo-2-propynyl butylcarbamate (IPBC)]", "growth": 98.7}
{"molecule": "CC(C)n1nnnc1SCc1nc(-c2ccccc2Cl)no1", "note": "+ CCCCNC(=O)OCC#CI [3-iodo-2-propynyl butylcarbamate (IPBC)]", "growth": 89.8}
{"molecule": "CCCNC(=O)Cc1c(C)nc2cc(-c3ccccc3)nn2c1C", "note": "+ CCCCNC(=O)OCC#CI [3-iodo-2-propynyl butylcarbamate (IPBC)]", "growth": 86.8}
{"molecule": "Cc1ccnc(NS(=O)(=O)c2ccc(NS(=O)(=O)Cc3ccccc3)cc2)n1", "note": "+ CCCCNC(=O)OCC#CI [3-iodo-2-propynyl butylcarbamate (IPBC)]", "growth": 96.8}
{"molecule": "Cc1cc(C)c(NC(=O)CNC(=O)CCc2ccc(C3CC3C)o2)c(C)c1", "note": "(centres undefined) + CCCCNC(=O)OCC#CI [3-iodo-2-propynyl butylcarbamate (IPBC)]", "growth": 104}
{"molecule": "CCn1c(SCC(=O)O)nc2c(=O)n(C)c(=O)n(C)c21", "note": "+ CCCCNC(=O)OCC#CI [3-iodo-2-propynyl butylcarbamate (IPBC)]", "growth": 87.8}
{"molecule": "COC(=O)c1cc2oc(C)cc2n1CC(=O)N1CC(C)CC(C)C1", "note": "(centres undefined) + CCCCNC(=O)OCC#CI [3-iodo-2-propynyl butylcarbamate (IPBC)]", "growth": 99.5}
{"molecule": "CCc1nnc(NC(=O)C(=O)c2cc(C)n(-c3ccc(F)cc3)c2C)s1", "note": "+ CCCCNC(=O)OCC#CI [3-iodo-2-propynyl butylcarbamate (IPBC)]", "growth": 99.3}
{"molecule": "NC(=O)c1ccsc1NC(=O)c1ccc(F)cc1F", "note": "+ CCCCNC(=O)OCC#CI [3-iodo-2-propynyl butylcarbamate (IPBC)]", "growth": 69.9}
{"molecule": "CC(Oc1ccc(NC(=O)c2ccco2)cc1)C(=O)NCc1ccc(Cl)cc1", "note": "(centres undefined) + CCCCNC(=O)OCC#CI [3-iodo-2-propynyl butylcarbamate (IPBC)]", "growth": 114}
{"molecule": "CCCc1cc(NCCN(C)C)n2nc3nc(C)cc(C)c3c2n1", "note": "+ CCCCNC(=O)OCC#CI [3-iodo-2-propynyl butylcarbamate (IPBC)]", "growth": 98.3}
{"molecule": "CN(Cc1ccc(Cl)s1)C(=O)CSc1nnc(-c2ccc[nH]2)o1", "note": "+ CCCCNC(=O)OCC#CI [3-iodo-2-propynyl butylcarbamate (IPBC)]", "growth": 100}
{"molecule": "COC(=O)c1c(C)[nH]c(C(=O)N2CCOC(C)C2)c1C", "note": "(centres undefined) + CCCCNC(=O)OCC#CI [3-iodo-2-propynyl butylcarbamate (IPBC)]", "growth": 99.8}
{"molecule": "CC(C)C\\C1=N\\N(C(=O)C2=CC=CO2)C(O)(C1)C(F)(F)F", "note": "(centres undefined) + CCCCNC(=O)OCC#CI [3-iodo-2-propynyl butylcarbamate (IPBC)]", "growth": 98.2}
{"molecule": "CN(c1ccccc1)S(=O)(=O)c1ccccc1C(=O)OCC(=O)c1ccc(Cl)s1", "note": "+ CCCCNC(=O)OCC#CI [3-iodo-2-propynyl butylcarbamate (IPBC)]", "growth": 95.1}
{"molecule": "CCc1ccc(CN2C(=O)CN(S(C)(=O)=O)CC2(C)C(=O)NC2CCCC2)cc1", "note": "(centres undefined) + CCCCNC(=O)OCC#CI [3-iodo-2-propynyl butylcarbamate (IPBC)]", "growth": 103}
{"molecule": "CC(O)CN1C(C2=CC=CC=N2)\\C(=C(\\O)C1=O)C(=O)C3=CC=C(C)C=C3", "note": "(centres undefined) + CCCCNC(=O)OCC#CI [3-iodo-2-propynyl butylcarbamate (IPBC)]", "growth": 96.7}
{"molecule": "CCO/C(O)=C1/C(CC)=Nc2ccccc2N=C1NS(=O)(=O)c1cccc(C(C)=O)c1", "note": "+ CCCCNC(=O)OCC#CI [3-iodo-2-propynyl butylcarbamate (IPBC)]", "growth": 103}
{"molecule": "CCC(C)NC(=O)c1cccc(-n2cnc3cccnc32)c1", "note": "(centres undefined) + CCCCNC(=O)OCC#CI [3-iodo-2-propynyl butylcarbamate (IPBC)]", "growth": 101}
{"molecule": "COc1ccc(NC(=O)c2ccnc(N3CCC(C)CC3)c2)cc1", "note": "+ CCCCNC(=O)OCC#CI [3-iodo-2-propynyl butylcarbamate (IPBC)]", "growth": 77.6}
{"molecule": "O=C(O)c1nnn(-c2ccccc2Cl)c1-c1ccncc1", "note": "+ CCCCNC(=O)OCC#CI [3-iodo-2-propynyl butylcarbamate (IPBC)]", "growth": 84.9}
{"molecule": "COC(=O)C(C)(C)NC(=O)CCN1\\C=N/C2=C(C1=O)C(=CS2)C3=CC=C(C)C=C3", "note": "+ CCCCNC(=O)OCC#CI [3-iodo-2-propynyl butylcarbamate (IPBC)]", "growth": 103}
{"molecule": "CC(=O)c1csc(NC(=O)CCc2ccsc2)n1", "note": "+ CCCCNC(=O)OCC#CI [3-iodo-2-propynyl butylcarbamate (IPBC)]", "growth": 96}
{"molecule": "Cc1cccc(N2CCN(S(=O)(=O)c3cc(Br)cnc3N)CC2)c1C", "note": "+ CCCCNC(=O)OCC#CI [3-iodo-2-propynyl butylcarbamate (IPBC)]", "growth": 89}
{"molecule": "CCc1cc2c(SC(C(N)=O)c3ccc(F)cc3)ncnc2s1", "note": "(centres undefined) + CCCCNC(=O)OCC#CI [3-iodo-2-propynyl butylcarbamate (IPBC)]", "growth": 94.9}
